PubChem BioAssay AID504791, Drosophila RNAi Screening Center | 2011

- Test: 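Genes of the fly required for silencing by miRNA, siRNA or endo-siRNA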 (primary screen)
- Cell system: Drosophila S2-derived reporter cells
- Knock-down reagent: long dsRNA against Drosophila genes, about 150-250 ng dsRNA per well (siRNA assay); about 80-120 ng (miRNA assay)
- Timing: about 5 days (siRNA assay); about 4 days (miRNA assay)
- Treatment: copper sulfate induction of reporters: 25 µM (siRNA assay); 200 mM stated (miRNA assay), 1-2 days before reading
- Measured: 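Per-well ratio of Renilla over firefly light, expressed relative to that plate's average ratio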
- Units: stable assay Renilla, run 1 in luminescence; stable assay firefly, run 1 in luminescence
- Hit rule: 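a well was a first-pass pick when its plate-scaled ratio rose above 1.5 (siRNA assay) or 1.6 (miRNA assay), or dropped below 0.6; a gene counted only if two separate dsRNAs agreed on retest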
The screen tested about 23,000 reagents; shown is a random part of those that have a named target and a result. Over the whole deposit, 199 (0.86%) got an active call. 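Plate-scaled ratios behind the calls are not deposited; printed light signals are raw; many rows marked increased or decreased are still called inactive.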 Names joined by + are all predicted targets of the reagent. Not stated in the record: the direction of the score.

Silencing of Rab9Db + Rab9D + Rab9E [DRSC17656] resulted in: stable assay Renilla, run 1 = 4863; stable assay firefly, run 1 = 3.22e5; inactive. fry [DRSC08993] gave stable assay Renilla, run 1 = 4027; stable assay firefly, run 1 = 3.38e5; inactive. After knock-down of fry [DRSC10172], the screen gave stable assay Renilla, run 1 = 5740; stable assay firefly, run 1 = 3.69e5; inactive. Knock-down of fry [DRSC10709] came out at: stable assay Renilla, run 1 = 6418; stable assay firefly, run 1 = 4.85e5; inactive. fry [DRSC10712] showed stable assay Renilla, run 1 = 7470; stable assay firefly, run 1 = 3.05e5; inactive. CG16904 [DRSC15161] gave stable assay Renilla, run 1 = 8422; stable assay firefly, run 1 = 4.14e5; inactive.

After knock-down of CG1662 [DRSC19754], the record shows stable assay Renilla, run 1 = 7862; stable assay firefly, run 1 = 4.14e5; inactive. CG8841 [DRSC07286] scored stable assay Renilla, run 1 = 10052; stable assay firefly, run 1 = 5.63e5; inactive. For CG10486 [DRSC09735], the values are miRNA reporter change reporter ratio raised past the hit cutoff; stable assay Renilla, run 1 = 6315; stable assay firefly, run 1 = 3.78e5; inactive. Against qsm [DRSC05896], the entry reads stable assay Renilla, run 1 = 6651; stable assay firefly, run 1 = 4.65e5; inactive. After knock-down of qsm [DRSC06393], the screen gave stable assay Renilla, run 1 = 5667; stable assay firefly, run 1 = 3.78e5; inactive. With knock-down of mod [DRSC16999], the record shows stable assay Renilla, run 1 = 8462; stable assay firefly, run 1 = 4.48e5; inactive.

CG33483 [DRSC14019] gave stable assay Renilla, run 1 = 8188; stable assay firefly, run 1 = 4.22e5; inactive. CG6357 [DRSC06979] gave stable assay Renilla, run 1 = 8114; stable assay firefly, run 1 = 4.12e5; inactive. CG33296 [DRSC00998] showed stable assay Renilla, run 1 = 4443; stable assay firefly, run 1 = 3.36e5; inactive. Ndae1 [DRSC00975] scored stable assay Renilla, run 1 = 5608; stable assay firefly, run 1 = 5.30e5; inactive. Silencing of Ndae1 [DRSC02770] gave: stable assay Renilla, run 1 = 10742; stable assay firefly, run 1 = 4.65e5; inactive. For CarT [DRSC03196], the entry reads stable assay Renilla, run 1 = 9646; stable assay firefly, run 1 = 5.34e5; inactive.

After knock-down of amx [DRSC18736] the results were stable assay Renilla, run 1 = 5160; stable assay firefly, run 1 = 3.96e5; inactive. Knock-down of Ir7g [DRSC18008] came out at: stable assay Renilla, run 1 = 5366; stable assay firefly, run 1 = 3.45e5; inactive. After knock-down of NHP2 [DRSC11229] the results were stable assay Renilla, run 1 = 8118; stable assay firefly, run 1 = 4.71e5; inactive. Against pst [DRSC11003] the deposit lists stable assay Renilla, run 1 = 7698; stable assay firefly, run 1 = 5.03e5; inactive. CG15919 [DRSC06594] showed stable assay Renilla, run 1 = 3328; stable assay firefly, run 1 = 3.36e5; inactive. For TP53INP [DRSC08178] the deposit lists stable assay Renilla, run 1 = 5291; stable assay firefly, run 1 = 4.25e5; inactive.

For TP53INP [DRSC22552], the values are stable assay Renilla, run 1 = 5903; stable assay firefly, run 1 = 5.93e5; inactive. CG13123 [DRSC02219] showed stable assay Renilla, run 1 = 8482; stable assay firefly, run 1 = 5.25e5; inactive. Against CG42390 [DRSC15866], the entry reads stable assay Renilla, run 1 = 6818; stable assay firefly, run 1 = 1.90e5; inactive. Against CG42390 [DRSC23064], the entry reads stable assay Renilla, run 1 = 3560; stable assay firefly, run 1 = 3.12e5; inactive. For CG42390 [DRSC23065], the values are stable assay Renilla, run 1 = 5283; stable assay firefly, run 1 = 3.72e5; inactive. Against eIF4B [DRSC20983], the values are stable assay Renilla, run 1 = 4828; stable assay firefly, run 1 = 4.10e5; inactive.

CG2616 [DRSC15440] gave stable assay Renilla, run 1 = 6239; stable assay firefly, run 1 = 3.29e5; inactive. Against TwdlT [DRSC16677], the values are stable assay Renilla, run 1 = 6363; stable assay firefly, run 1 = 4.23e5; inactive. After knock-down of TwdlT [DRSC21540], the screen gave stable assay Renilla, run 1 = 8902; stable assay firefly, run 1 = 4.29e5; inactive. With knock-down of E(spl)m2-BFM [DRSC16991] the results were stable siRNA reporter change reporter ratio raised past the hit cutoff; stable assay Renilla, run 1 = 5175; stable assay firefly, run 1 = 1.61e5; inactive. After knock-down of E(spl)m2-BFM [DRSC23082], the record shows stable assay Renilla, run 1 = 4356; stable assay firefly, run 1 = 3.40e5; inactive.

Only “stable assay Renilla, run 1”, for 4 of the entries above:
CG42390 [DRSC23064]: 3560
CG42390 [DRSC23065]: 5283
eIF4B [DRSC20983]: 4828
CG2616 [DRSC15440]: 6239
